In PubChem BioAssay AID588499 (NMMLSC, 2011):
Out of some 360,000 compounds screened, about 610 (0.17%) were called active. Inconclusive means that the source gave no clear call. Such entries were picked first, then a sample of the others. Cut-off read from the data, not from the text of the source: active = inhibition above about 30%; inconclusive = no clear call, values can overlap the other calls; inactive = below that.

These molecules were tested on Botulinum neurotoxin type A light chain protease (Clostridium botulinum A str. ATCC 3502) (assay: blockers of BoNT/A LC substrate cleavage – biochemical, flow cytometry, MLPCN library, primary screen (AID 588499; note: plate controls were buffer without enzyme for full effect and enzyme alone for no effect)). Conditions: multiplex microsphere protease substrate cleavage, at 10 µM, hits give high values.
`COc1ccccc1NC(=O)CS(=O)(=O)c1cn(CC(=O)N(C(C)C)C(C)C)c2ccccc12` was tested, and the inhibition was inactive: -0.1%.
In the case of `COc1ccc(-c2noc(CCC(=O)NCC3CCCO3)n2)cc1` (stereo not drawn), the inhibition is reported as inconclusive: -43.9%.
For `CCOC(=O)C1=C(COC(=O)c2ccc(C)s2)NC(=O)NC1C` (stereo not drawn), the inhibition was inconclusive: -0.8%.
`CC(=O)NCCn1c(SCc2cc(F)ccc2F)nc2ccccc2c1=O` was tested, and the inhibition was inconclusive: 0.4%.
With `COC(=O)c1ccc(OC)c(OC2CCCC2)c1` the inhibition was inconclusive: 6%.
`CC(C)(C)C(=O)CC1(O)C(=O)N(Cc2ccccc2)c2ccccc21` (stereo not drawn) was tested, and the inhibition was inconclusive: 40.5%.
With `CCSC1=C(C#N)C(c2cccs2)C(C(=O)OC)=C(C)N1` (stereo not drawn) the inhibition was inconclusive: 1.5%.
`CC1(/[N+]([O-])=C/c2cccc(Cl)c2)CCCCC1=O` (stereo not drawn) was tested, and the inhibition was inconclusive: 2.5%.
In the case of `Cc1noc(NS(=O)(=O)c2ccc(NC(=O)c3ccc(Cl)c(S(=O)(=O)N(C)c4ccccc4)c3)cc2)c1C`, the inhibition is reported as inactive: -2.7%.
In the case of `CCCC1=C(C(=O)OCC)C2(C(=O)Nc3ccccc32)C(C#N)=C(N)O1` (stereo not drawn), the inhibition is reported as inactive: -0.6%.
In the case of `O=C(NC(=S)Nc1ccccc1N1CCCC1)c1ccc(-c2cccc([N+](=O)[O-])c2)o1`, the inhibition is reported as inconclusive: 3.9%.
`CCCN(CCO)C1CCN(CCc2ccccc2)CC1` was tested, and the inhibition was inconclusive: -2.2%.
`O=S(=O)(Cc1ccccc1)N1CCC(c2nc(-c3cccs3)no2)CC1` was tested, and the inhibition was inconclusive: 10.5%.
For `COc1ccc(/C=C/C(=O)c2ccc[nH]2)c(OC)c1OC`, the inhibition was inactive: 3.6%.
In the case of `O=c1c(F)cn(C2CCCO2)c(=O)n1Cc1c(F)cccc1Cl` (stereo not drawn), the inhibition is reported as inconclusive: 26.4%.
In the case of `COc1ccc(-c2c[n+](CC(=O)c3ccccc3)c3n2CCCCC3)cc1`, the inhibition is reported as inactive: -8%.
With `Cc1ccc(NC2=CC(=O)C(=O)c3ccccc32)c(C)c1` the inhibition was inconclusive: 0.9%.
For `Cc1cc2c(=O)[nH]c(N)nc2[nH]1`, the inhibition was inactive: -0.4%.
In the case of `O=C(O)c1cccc(S(=O)(=O)Nc2ccc3c(c2)OCO3)c1`, the inhibition is reported as inconclusive: 2.5%.
With `Cc1ccccc1-n1sc2cc(F)ccc2c1=O` the inhibition was active: 88.6%.
With `COc1ccc(Br)cc1C1NC(=O)NC(C)=C1C(=O)N(C)C` (stereo not drawn) the inhibition was inactive: -0.9%.
`Cc1nn(-c2ccc(Cl)cc2)c(NC(=O)C(C)C)c(-c2ccccc2)c1=O` was tested, and the inhibition was inconclusive: -10.7%.
With `Cn1c2ccc(Cl)cc2c2nc3ccccc3nc21` the inhibition was active: 40.3%.
In the case of `CNS(=O)(=O)c1cc(Br)ccc1S(=O)c1ccccc1C(=O)O` (stereo not drawn), the inhibition is reported as inconclusive: -4.3%.
`CC(=O)c1nnn(-c2nc(N)nc(N(c3ccccc3)c3ccccc3)n2)c1C` was tested, and the inhibition was inconclusive: 0.3%.
`CSc1cccc(NC(=S)NN(C)C)c1` was tested, and the inhibition was inconclusive: 1.6%.
In the case of `Cc1nc(N)ncc1Sc1ccccc1`, the inhibition is reported as inconclusive: 0.4%.
For `CC(C)CNc1ncnc2c1ncn2[C@H]1CN(Cc2ccc(F)cc2)C[C@@H](CO)O1`, the inhibition was inactive: -0.2%.
In the case of `COc1ccccc1C(=O)NCCCn1cc(Br)c(C)n1`, the inhibition is reported as inconclusive: -0.1%.
With `COc1ccccc1Nc1nnc(SCC(=O)N2CCCC2)s1` the inhibition was inconclusive: -1%.
In the case of `COc1ccc(NC(=O)C2CCCCN2N)cc1OCC(C)C` (stereo not drawn), the inhibition is reported as inconclusive: -1.3%.
`CC(=O)CC(C)(C)Nc1nc2ccc([N+](=O)[O-])cc2o1` was tested, and the inhibition was inconclusive: -3%.
`CCn1c(=NC(=O)c2ccc(N3C(=O)CCC3=O)cc2)sc2c(OC)ccc(OC)c21` was tested, and the inhibition was inactive: -0.4%.
`O=C(CN1C(=O)C2(OCCO2)c2ccccc21)c1ccc(Cl)cc1` was tested, and the inhibition was inconclusive: 0.7%.
With `CN(C)S(=O)(=O)c1cc(NC(=O)CN2CCCc3ccccc32)ccc1Cl` the inhibition was inconclusive: 3.9%.
In the case of `CC12CCC(C(=O)C1)C1(C)CCCC(=O)C21` (stereo not drawn), the inhibition is reported as inactive: 0.6%.
For `CCOC(=O)c1sc(SC)c2c1CCC/C2=N/OC`, the inhibition was inconclusive: -18.5%.
With `Cc1ccc(-n2c(=O)c(C#N)cc3c(=O)n4cccc(C)c4nc32)cc1` the inhibition was inconclusive: -1.2%.
In the case of `COc1cc(OC)cc(-c2c(C#Cc3ccsc3)c3cc(-c4ccc5c(c4)OCO5)ccc3n2C)c1`, the inhibition is reported as inactive: 0.3%.
With `CCc1ccc(-c2cc(C(F)(F)F)n3nc(C(=O)Nc4cnn(Cc5ccccc5C)c4)cc3n2)s1` the inhibition was inactive: 4.4%.
`C#CCOC(=O)c1csc2nnsc12` was tested, and the inhibition was inconclusive: 0.7%.
In the case of `c1ccc(CNC2CN3CCC2CC3)cc1` (stereo not drawn), the inhibition is reported as inactive: 0.3%.
For `COc1cc(CNCC(C)C)c(Br)cc1OCC(=O)NCc1ccccc1`, the inhibition was inactive: -0.5%.
For `c1ccc2c(CN3CCCCC3)c[nH]c2c1`, the inhibition was inconclusive: 17.3%.
`O=C1CCN(Cc2ccco2)C(=S)N1` was tested, and the inhibition was inactive: -0.2%.
For `O=C(Nc1ccccc1O)c1cccc(S(=O)(=O)Nc2ccccc2O)c1`, the inhibition was inactive: -0.1%.
In the case of `Cc1ccsc1C1Nc2ccc3ncccc3c2C2=C1C(=O)CC(C)(C)C2` (stereo not drawn), the inhibition is reported as inconclusive: -0.5%.
`COC(=O)c1ccc(OCC(=O)Nc2nn(-c3ccccc3)nc2C(N)=O)cc1` was tested, and the inhibition was inconclusive: -0.4%.
